# Results are given in words; binding and its absence hold for the method and conditions named. In cells and extracts the contact can be indirect. Some results given as binding are weak or reduced against the parent protein; the word gives no strength. Where a sequence is shown, tags or fusion partners need not be part of it.
# By UniProt entry, the sequences of proteins in these tests, tags left out.
# UniProt Q9UBN7: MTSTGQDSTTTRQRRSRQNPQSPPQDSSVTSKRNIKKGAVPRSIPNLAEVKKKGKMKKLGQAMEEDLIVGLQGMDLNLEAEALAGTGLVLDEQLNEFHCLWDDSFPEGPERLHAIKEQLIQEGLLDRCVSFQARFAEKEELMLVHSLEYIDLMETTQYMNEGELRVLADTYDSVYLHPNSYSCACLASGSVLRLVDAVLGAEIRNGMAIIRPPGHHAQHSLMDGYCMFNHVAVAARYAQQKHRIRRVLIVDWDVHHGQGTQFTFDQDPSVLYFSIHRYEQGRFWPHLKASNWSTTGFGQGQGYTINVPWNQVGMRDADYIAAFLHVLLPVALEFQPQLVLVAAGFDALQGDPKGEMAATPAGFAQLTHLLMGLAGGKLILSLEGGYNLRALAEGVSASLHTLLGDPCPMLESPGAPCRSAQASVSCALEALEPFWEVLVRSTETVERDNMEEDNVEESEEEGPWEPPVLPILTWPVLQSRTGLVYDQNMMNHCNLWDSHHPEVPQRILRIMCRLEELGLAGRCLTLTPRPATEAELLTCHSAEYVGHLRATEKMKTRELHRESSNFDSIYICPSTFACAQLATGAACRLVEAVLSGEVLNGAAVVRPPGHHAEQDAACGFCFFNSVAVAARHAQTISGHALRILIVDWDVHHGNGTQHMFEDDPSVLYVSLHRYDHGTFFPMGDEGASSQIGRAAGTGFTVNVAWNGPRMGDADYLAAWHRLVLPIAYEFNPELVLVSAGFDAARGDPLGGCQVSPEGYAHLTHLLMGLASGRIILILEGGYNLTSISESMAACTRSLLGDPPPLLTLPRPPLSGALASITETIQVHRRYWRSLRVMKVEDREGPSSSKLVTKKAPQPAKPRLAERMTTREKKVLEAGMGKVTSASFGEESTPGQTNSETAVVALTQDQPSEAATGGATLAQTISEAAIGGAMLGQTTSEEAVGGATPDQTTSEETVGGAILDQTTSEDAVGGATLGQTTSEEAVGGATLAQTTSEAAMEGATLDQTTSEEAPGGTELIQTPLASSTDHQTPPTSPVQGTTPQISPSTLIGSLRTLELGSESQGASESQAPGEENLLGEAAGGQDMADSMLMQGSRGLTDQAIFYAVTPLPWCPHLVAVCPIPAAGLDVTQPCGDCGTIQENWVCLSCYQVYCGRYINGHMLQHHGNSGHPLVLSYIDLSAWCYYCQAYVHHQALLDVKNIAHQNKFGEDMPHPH
# Target: T1, Flag-tagged Chk1 (UniProt O14757)
# T1 sequence: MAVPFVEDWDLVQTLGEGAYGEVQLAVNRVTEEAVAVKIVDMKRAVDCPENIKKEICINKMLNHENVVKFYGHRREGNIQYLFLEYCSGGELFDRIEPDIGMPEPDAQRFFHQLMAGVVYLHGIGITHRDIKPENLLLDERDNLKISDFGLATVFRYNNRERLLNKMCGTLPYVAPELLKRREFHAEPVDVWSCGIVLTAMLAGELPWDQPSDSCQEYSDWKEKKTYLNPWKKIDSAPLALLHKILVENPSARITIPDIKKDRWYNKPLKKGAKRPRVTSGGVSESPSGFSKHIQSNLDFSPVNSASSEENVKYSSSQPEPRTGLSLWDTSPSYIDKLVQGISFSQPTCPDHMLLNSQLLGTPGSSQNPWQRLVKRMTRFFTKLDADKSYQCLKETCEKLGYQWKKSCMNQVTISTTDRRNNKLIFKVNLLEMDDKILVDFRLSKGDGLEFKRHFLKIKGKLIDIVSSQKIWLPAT
# Test: co-IP; Flag-Chk1 and HA-HDAC6 co-transfected into 293T cells, 48 h; lysates incubated with HA-coated or Flag-coated agarose beads; blot probed for the reciprocal tag
substance,measurement,value
HA-tagged HDAC6 (from UniProt Q9UBN7 1-1215),binding,binds
